Binding data for two molecules are collected here from article PMC5657617.

Chains of the proteins cited; added tags and fusions are not shown. Lines headed by an entry give the natural chain unless they say otherwise; changes in a name come on top. A line that says so, or that is headed by a name, gives the form on record, which may keep a tag or linker. Residues count along the entry.
GST-PSIG1^1-606 (Q9FMM3, residues 1-606): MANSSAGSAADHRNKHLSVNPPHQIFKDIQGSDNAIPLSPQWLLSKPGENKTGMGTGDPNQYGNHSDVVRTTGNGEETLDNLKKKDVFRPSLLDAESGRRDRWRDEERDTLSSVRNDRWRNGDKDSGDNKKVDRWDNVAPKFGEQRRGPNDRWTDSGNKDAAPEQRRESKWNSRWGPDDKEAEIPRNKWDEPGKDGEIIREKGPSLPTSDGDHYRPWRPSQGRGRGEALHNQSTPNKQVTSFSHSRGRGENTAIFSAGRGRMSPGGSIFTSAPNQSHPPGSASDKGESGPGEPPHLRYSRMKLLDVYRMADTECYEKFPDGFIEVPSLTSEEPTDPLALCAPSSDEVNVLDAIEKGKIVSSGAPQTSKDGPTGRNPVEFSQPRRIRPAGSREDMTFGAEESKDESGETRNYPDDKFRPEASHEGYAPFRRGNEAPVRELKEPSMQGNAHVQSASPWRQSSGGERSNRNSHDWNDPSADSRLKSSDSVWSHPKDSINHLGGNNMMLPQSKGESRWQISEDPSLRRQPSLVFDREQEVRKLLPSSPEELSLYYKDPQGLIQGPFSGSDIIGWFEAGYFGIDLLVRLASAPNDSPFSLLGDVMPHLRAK
GST-PSIG1^(1-606 W570A/Y575A) (Q9FMM3, form named): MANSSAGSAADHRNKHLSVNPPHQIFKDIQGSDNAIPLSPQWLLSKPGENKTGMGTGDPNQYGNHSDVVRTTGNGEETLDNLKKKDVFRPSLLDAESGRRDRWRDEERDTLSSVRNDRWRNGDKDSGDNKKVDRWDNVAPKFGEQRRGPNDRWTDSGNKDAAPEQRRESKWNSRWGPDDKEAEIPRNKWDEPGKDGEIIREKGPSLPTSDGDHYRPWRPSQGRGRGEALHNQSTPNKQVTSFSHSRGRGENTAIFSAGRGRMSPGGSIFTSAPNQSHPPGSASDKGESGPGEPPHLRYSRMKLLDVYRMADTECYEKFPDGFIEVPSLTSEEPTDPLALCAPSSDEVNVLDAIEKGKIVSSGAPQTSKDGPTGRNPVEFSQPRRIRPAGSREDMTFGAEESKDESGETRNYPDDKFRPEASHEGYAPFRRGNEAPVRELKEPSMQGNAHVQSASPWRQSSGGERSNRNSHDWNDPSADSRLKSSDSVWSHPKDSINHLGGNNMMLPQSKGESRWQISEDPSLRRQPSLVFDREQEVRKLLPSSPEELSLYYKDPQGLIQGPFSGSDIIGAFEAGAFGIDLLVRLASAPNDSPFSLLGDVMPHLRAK
GST-PSIG1^(1-606 Y575A) (Q9FMM3, form named): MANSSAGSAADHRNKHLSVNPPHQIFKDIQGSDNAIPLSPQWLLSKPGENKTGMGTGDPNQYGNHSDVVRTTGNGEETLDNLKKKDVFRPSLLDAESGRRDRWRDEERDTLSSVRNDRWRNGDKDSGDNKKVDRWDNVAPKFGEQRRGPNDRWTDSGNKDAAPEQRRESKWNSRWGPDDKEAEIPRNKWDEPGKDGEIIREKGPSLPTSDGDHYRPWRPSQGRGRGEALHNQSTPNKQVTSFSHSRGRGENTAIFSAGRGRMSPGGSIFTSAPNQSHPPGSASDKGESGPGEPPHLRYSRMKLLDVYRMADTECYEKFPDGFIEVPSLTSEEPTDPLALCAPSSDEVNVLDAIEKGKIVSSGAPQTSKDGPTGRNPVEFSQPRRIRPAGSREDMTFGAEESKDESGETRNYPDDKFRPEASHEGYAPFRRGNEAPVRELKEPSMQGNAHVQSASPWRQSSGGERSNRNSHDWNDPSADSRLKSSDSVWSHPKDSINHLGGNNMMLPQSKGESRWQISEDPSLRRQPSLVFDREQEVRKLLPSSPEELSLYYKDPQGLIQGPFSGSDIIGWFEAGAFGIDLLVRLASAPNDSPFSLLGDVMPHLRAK

Results are given in words; binding and its absence hold for the method and conditions named. Where a sequence is shown, tags or fusion partners need not be part of it.

Test in all cases: pull-down; GST-PSIG1 proteins and HisMBP-SMG7 proteins mixed in 50 mM Tris-HCl pH 7.5, 150 mM NaCl, 1 mM DTT, 0.1% Triton X-100; Glutathione-Sepharose beads, 2 h at 4°C; washed three times with 300 mM NaCl buffer; detected by anti-His or anti-GST immunoblot or CBB; both purified
(In western blotting, separated proteins are transferred to a membrane and probed.)

Experiment [1] deals with GST-PSIG1^(1-606 W570A/Y575A) (Arabidopsis thaliana) (UniProt Q9FMM3).
The target in experiment [2] is GST-PSIG1^(1-606 Y575A) (Arabidopsis thaliana) (UniProt Q9FMM3).
The target of experiment [3] is GST-PSIG1^1-606 (Arabidopsis thaliana) (UniProt Q9FMM3).

B1: HisMBP-SMG7 (protein, UniProt A9QM73 1-1059)
chain: MMTLQMDKTTASSSWERAKSIYDEIAELANKRQKAGNPPDPNLLQLLREKYEAIILESHTFSEQHNIEIPLWQLHYKRIEYFRLHINRVLASSTSTAAQNVKGPSKAEQIAQLKLQFRTFLSEATGFYHDMILKIRSKYGLPLGSFSEDQQSQNLSDKDGKELAEVQKALKSCHRCLIYLGDLARYKGMYAEGDSRSRQYASASSYYLQAASLWPASGNPHHQLAIVASYSRDEFVTTYRYFRSLAVEYPFPTARDNLIVAFDKNRQSYEKLFVPSKDSSKRLTGKGRGKGADISLKDATLVAGPEKDKVTIANEMLKAFSIRFVHLNGILFTRTSLETFFDVLASTSSSLREVISLGSAKELTLGIDTSDSALFIVRVVTMLIFSVHNSKKETEGQSYAEIVQRVEPARNSLTASFELLGLVIEKCVQLGDPSSSYFLPGVLVFVEWLACCPDIALGSDPDDRQTAVRNSFWNQFVVFFNQVLSLGPTFIDDVEDETCFSNMSLYDERETENRLALWEDYELRGFLPLLPAQTILNFSRKHSFGTEGPKEKKARIKRIFAAGKALTSVIKVDQNHVYFDSKKKKFLVGVKPADDFLDSHSSPPKACNALQDNQVMIDHNSPIMQLDQQIYMGEEDDDDEVIVFKPLVTEKRKEASDQIYVPSGGFRKSDQVTTMGDFKALSGSDVAFHENQILQARGNASIQVPASVGANLLGPLQPSTQSQAMHMQQVQTQVQVPASVGANLLGLLLTSTQSQAMHMQQVQTQAVNPQPAQSLAASRLQPIQSQVAQPLPSRVVHFQQTQAQVSHVSPAHSQSTSFGGGSKWSPEEAASLASSLSGFAQLGNGHVMRNEMQGNHGVSYYPAHSLPVHQSYNGNGMGGMPYSQSRTPEAVFPPKIDPVLSSGVVADGLGVQSSLAKKNPISRAFRHLGPPPGFNSVPAKLQKEPAPGSELSGNNHLPVDDYSWLDGYQAQSSRGVGLNSSLNYATSGKPEHLGSTGNGLNGPANFPFPGKQVPTSQVQADFPYFQNPQKDNFVDKNHQSTQLPEQYQGQSTWSSRHFV
Regarding B1, the binding result in experiment [1] and in experiment [2] was “no binding” throughout.

B2: HisMBP-SMG7^G933A (protein, UniProt A9QM73 1-1059)
chain: MMTLQMDKTTASSSWERAKSIYDEIAELANKRQKAGNPPDPNLLQLLREKYEAIILESHTFSEQHNIEIPLWQLHYKRIEYFRLHINRVLASSTSTAAQNVKGPSKAEQIAQLKLQFRTFLSEATGFYHDMILKIRSKYGLPLGSFSEDQQSQNLSDKDGKELAEVQKALKSCHRCLIYLGDLARYKGMYAEGDSRSRQYASASSYYLQAASLWPASGNPHHQLAIVASYSRDEFVTTYRYFRSLAVEYPFPTARDNLIVAFDKNRQSYEKLFVPSKDSSKRLTGKGRGKGADISLKDATLVAGPEKDKVTIANEMLKAFSIRFVHLNGILFTRTSLETFFDVLASTSSSLREVISLGSAKELTLGIDTSDSALFIVRVVTMLIFSVHNSKKETEGQSYAEIVQRVEPARNSLTASFELLGLVIEKCVQLGDPSSSYFLPGVLVFVEWLACCPDIALGSDPDDRQTAVRNSFWNQFVVFFNQVLSLGPTFIDDVEDETCFSNMSLYDERETENRLALWEDYELRGFLPLLPAQTILNFSRKHSFGTEGPKEKKARIKRIFAAGKALTSVIKVDQNHVYFDSKKKKFLVGVKPADDFLDSHSSPPKACNALQDNQVMIDHNSPIMQLDQQIYMGEEDDDDEVIVFKPLVTEKRKEASDQIYVPSGGFRKSDQVTTMGDFKALSGSDVAFHENQILQARGNASIQVPASVGANLLGPLQPSTQSQAMHMQQVQTQVQVPASVGANLLGLLLTSTQSQAMHMQQVQTQAVNPQPAQSLAASRLQPIQSQVAQPLPSRVVHFQQTQAQVSHVSPAHSQSTSFGGGSKWSPEEAASLASSLSGFAQLGNGHVMRNEMQGNHGVSYYPAHSLPVHQSYNGNGMGGMPYSQSRTPEAVFPPKIDPVLSSGVVADGLGVQSSLAKKNPISRAFRHLGPPPAFNSVPAKLQKEPAPGSELSGNNHLPVDDYSWLDGYQAQSSRGVGLNSSLNYATSGKPEHLGSTGNGLNGPANFPFPGKQVPTSQVQADFPYFQNPQKDNFVDKNHQSTQLPEQYQGQSTWSSRHFV
For the molecule B2, the binding result in experiment [3] was “no binding”.
